Earlier results in patent US5976797A, “Method for quantifying total mRNA with poly(A)-complementary oligonucleotide-immobilized microtiter plate” (Hitachi Chemical Co., Ltd., priority 1996, dated 1999).
The name of at least one read-out is uncertain.

Settings: intravenous administration of clinical doses; cited from earlier work

Structure (SMILES) | reported peak plasma concentration (PPC) [mg/mL]
CO[C@@]12[C@H](COC(N)=O)C3=C(C(=O)C(C)=C(N)C3=O)N1C[C@@H]1N[C@@H]12 [Mitomycin C, mitomycin C] | 3
CC[C@]1(O)C[C@@H]2CN(CCc3c([nH]c4ccccc34)[C@@](C(=O)OC)(c3cc4c(cc3OC)N(C)[C@H]3[C@@](O)(C(=O)OC)[C@H](OC(C)=O)[C@]5(CC)C=CCN6CC[C@]43[C@@H]65)C2)C1 [Vinblastine, vinblastine] | 0.5
